Experimental data reported in article PMC7411736, “Effects of Sesamin, the Major Furofuran Lignan of Sesame Oil, on the Amplitude and Gating of Voltage-Gated Na^+ and K^+ Currents” (Molecules, 2020).

System: voltage-gated Na+ currents (INa) in pituitary GH3 cells
Assay: Whole-cell patch-clamp of voltage-gated Na+ current evoked by depolarization from −80 to −10 mV
Format: cell-based, rat
Conditions: 0.1–100 μM
Method: In an initial step of the experiments, we examined the effects of SSM on the amplitude and gating of INa in response to rapid membrane depolarization. Cells were bathed in Ca^2+-free Tyrode’s solution containing 10 mM tetraethylammonium chloride (TEA) and the recording pipette was backfilled with a Cs^+-containing solution. […]
On the day of each experiment, cells were dispersed with a 1% trypsin/EDTA solution and a few drops of cell suspension were rapidly placed in a custom-built recording chamber mounted on the stage of an inverted DM-IL microscope (Leica; Major Instruments, Kaohsiung, Taiwan). […] We measured ion currents in the whole-cell model of a standard patch-clamp technique with dynamic adaptive suctioning (i.e., decremental change of suction pressure in response to a progressive increase in the electrode resistance), with the aid of an RK-400 (Bio-Logic, Claix, France) or an Axopatch-200B (Molecular Devices, Sunnyvale, CA) patch amplifier. […] During the measurements, the recorded area on the vibration-free table was shielded by using a Faraday cage (Scitech, Seoul, South Korea). […]

c1cc2c(cc1[C@H]1OC[C@H]3[C@@H]1CO[C@@H]3c1ccc3c(c1)OCO3)OCO2 [SSM, [1S-(1α,3aα,4α,6aα)] -5,5’- (tetrahydro-1H,3H-furo [3–4-c]furan-1,4-diyl)bis-1,3-benzodioxole]
Hill coefficient (nH) for inhibition of peak INa: 1.2
Hill coefficient (nH) for inhibition of sustained INa: 1.2
